Several values for one entry are separate records, joined by “and”; a condition that tells them apart may be missing. Identical values can stand only once. The list shows a part of the results. Many values rest on one well or one pass, so single values are uncertain.
What was measured:
[1] = system: MEPP (mouse ovarian epithelium Trp53/Pten KO); test: cell viability relative to untreated (fraction); higher = less growth inhibition; settings: 5 µM; 3 days
[2] = system: PREPP (mouse prostate epithelium Trp53/Pten KO); test: as above; settings: 5 µM; 3 days

SMILES	cell viability [1]	cell viability [2]
O[C@@H]1[C@@H](O)[C@@H](O)CO[C@H]1O	0.851	1.06
c1nc2c[nH]cnc-2n1	0.795	1.16
CN1CC[C@H](c2c(O)cc(O)c3c(=O)cc(-c4ccccc4Cl)oc23)[C@H](O)C1	0.621 and 0.613	0.716 and 0.677
N#CC(c1ccc(Cl)cc1)c1c(Cl)cc(-n2ncc(=O)[nH]c2=O)cc1Cl (stereo unspecified)	1.08	0.827
CCc1c2c(nc3ccc(OC(=O)N4CCC(N5CCCCC5)CC4)cc13)-c1cc3c(c(=O)n1C2)COC(=O)[C@]3(O)CC	0.985 and 0.79	0.711 and 0.829
CC(=O)O[C@H]1C(=O)[C@@]2(C)[C@H]([C@H](OC(=O)c3ccccc3)[C@]3(O)C[C@H](OC(=O)[C@H](O)[C@@H](NC(=O)c4ccccc4)c4ccccc4)C(C)=C1C3(C)C)[C@]1(OC(C)=O)CO[C@@H]1C[C@@H]2O	0.64 and 0.734	0.697 and 0.797
NCCCC(=O)O	1.01	1.22
CNC(=O)c1cc(Oc2ccc(NC(=O)Nc3ccc(Cl)c(C(F)(F)F)c3)cc2)ccn1	0.805	0.341
CC1(C)CC[C@]2(C(=O)O)CC[C@]3(C)C(=CC[C@@H]4[C@@]5(C)C[C@@H](O)[C@H](O)C(C)(C)[C@@H]5CC[C@]43C)[C@@H]2C1	1.08	0.899
COc1ccc2cc1Oc1ccc(cc1)C[C@H]1c3cc(c(OC)cc3CCN1C)Oc1c(O)c(OC)cc3c1[C@H](C2)N(C)CC3	0.594	0.986
CCCCC(C)(O)C/C=C/[C@H]1[C@H](O)CC(=O)[C@@H]1CCCCCCC(=O)OC (stereo partly specified)	0.796	0.928
CC1(C)CC[C@]2(C(=O)O)CC[C@]3(C)C(=CC[C@@H]4[C@@]5(C)CC[C@H](O[C@@H]6O[C@H](C(=O)O)[C@@H](O)[C@H](O[C@@H]7OC[C@@H](O)[C@H](O)[C@H]7O)[C@H]6O)C(C)(C)[C@@H]5CC[C@]43C)[C@@H]2C1	0.719	1.12
CC(C)=CCC[C@@H](C)[C@H]1CC[C@@]2(C)C3=C(CC[C@]12C)[C@@]1(C)CC[C@H](O)C(C)(C)[C@@H]1CC3	0.865	0.967
NCCOP(=O)(O)O	0.887	1.05
Nc1nc(=O)c2c([nH]1)NCC(CNc1ccc(C(=O)N[C@@H](CCC(=O)O)C(=O)O)cc1)N2C=O (stereo partly specified)	1.05	0.942
Nc1nc2n[nH]nc2c(=O)[nH]1	0.532	0.324
C=C(NC(=O)C(=C)NC(=O)c1csc(C2=N[C@@H]3c4csc(n4)[C@H]4NC(=O)c5csc(n5)[C@H]([C@](C)(O)[C@@H](C)O)NC(=O)[C@H]5CSC(=N5)/C(=C/C)NC(=O)[C@H]([C@@H](C)O)NC(=O)c5csc(n5)[C@]3(CC2)NC(=O)[C@H](C)NC(=O)C(=C)NC(=O)[C@H](C)NC(=O)[C@H]([C@@H](C)CC)N[C@@H]2C=Cc3c([C@H](C)O)cc(nc3[C@H]2O)C(=O)O[C@@H]4C)n1)C(N)=O	0.575	0.619
O=C(O)c1cc(O)cc(O)c1	0.903	0.9
CSCC[C@H](NC(C)=O)C(=O)O	1.12	1

SMILES	cell viability [1]	cell viability [2]
O=C(O)[C@H](O)c1ccccc1	0.904	0.872
C=CCc1ccc(O)c(-c2ccc(O)c(CC=C)c2)c1	0.846	0.932
C=C(C)[C@H]1CC=C(C)C(=O)C1	1.02	1.12
NC(=O)[C@@H]1CSSCCC(=O)N[C@@H](CCCCN=C(N)N)C(=O)NCC(=O)N[C@@H](CC(=O)O)C(=O)N[C@@H](Cc2c[nH]c3ccccc23)C(=O)N2CCC[C@H]2C(=O)N1	0.919	1.02
O=C(c1ccccc1)c1ccccc1	1.23	0.968
CC(=O)CCC(=O)O	1.04	0.938
CC(C)c1ccc(C=O)cc1	1.01	0.95
N=c1ccn2c(n1)O[C@H]1[C@H](O)[C@@H](CO)O[C@H]12	0.599	0.887
CC1(C)CC(=O)CC(C)(C)N1	0.941	0.936
CCCCCCCCCCCCCCC(=O)O	1.03	0.846
Nc1ncnc2c1ncn2[C@@H]1O[C@H](CO)[C@@H](O)[C@@H]1O	0.837 and 0.886	1.12 and 1.07
CCCCC/C=C\C/C=C\CCCCCCCC(=O)O	0.914	1.01
COc1cc(O)c(CC=C(C)C)c(O)c1C(=O)/C=C/c1ccc(O)cc1	1.09	0.92
O=C(O)Cc1ccc(O)c(O)c1	0.893	0.907
CO/N=C(\C(=O)N[C@@H]1C(=O)N2C(C(=O)O)=C(Cn3ccc(=N)n3CCO)CS[C@H]12)c1csc(N)n1	1.15	0.95
OCCc1c[nH]c2ccccc12	0.881	1.02
CC(N)C12CC3CC(CC(C3)C1)C2 (stereo unspecified)	0.915	0.922
CO/N=C(\C(=O)N[C@@H]1C(=O)N2C(C(=O)O)=CCS[C@H]12)c1csc(N)n1	1.27	1.03
CSSSC	1.06	1.02

From the supplement of paper PMC12873370
